# In the supplement of paper PMC6411743:
# By UniProt entry, the sequences of proteins in these tests, tags left out. Where a name states a change or a piece, a line headed by the entry shows the natural chain unless it says otherwise.
# UniProt Q4G0N4: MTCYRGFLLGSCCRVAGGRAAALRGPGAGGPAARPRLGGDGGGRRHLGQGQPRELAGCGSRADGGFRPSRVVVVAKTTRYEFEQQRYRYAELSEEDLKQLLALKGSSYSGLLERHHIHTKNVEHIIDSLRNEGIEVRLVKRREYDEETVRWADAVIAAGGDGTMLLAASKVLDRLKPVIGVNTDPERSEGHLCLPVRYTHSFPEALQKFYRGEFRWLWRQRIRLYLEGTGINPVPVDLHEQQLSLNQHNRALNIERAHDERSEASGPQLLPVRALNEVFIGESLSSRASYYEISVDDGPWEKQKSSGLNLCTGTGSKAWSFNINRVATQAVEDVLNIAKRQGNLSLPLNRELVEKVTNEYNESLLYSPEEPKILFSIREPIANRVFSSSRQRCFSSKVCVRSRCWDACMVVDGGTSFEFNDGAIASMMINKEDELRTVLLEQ
# UniProt Q15274: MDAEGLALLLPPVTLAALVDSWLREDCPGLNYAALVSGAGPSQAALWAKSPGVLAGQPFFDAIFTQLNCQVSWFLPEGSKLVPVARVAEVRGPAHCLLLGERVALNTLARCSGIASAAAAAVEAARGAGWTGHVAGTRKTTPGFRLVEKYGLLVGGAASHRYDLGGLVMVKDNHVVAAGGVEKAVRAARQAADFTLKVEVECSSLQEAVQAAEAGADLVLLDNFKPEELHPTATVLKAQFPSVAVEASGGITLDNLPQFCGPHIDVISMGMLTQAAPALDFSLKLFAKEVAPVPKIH
# UniProt Q15797: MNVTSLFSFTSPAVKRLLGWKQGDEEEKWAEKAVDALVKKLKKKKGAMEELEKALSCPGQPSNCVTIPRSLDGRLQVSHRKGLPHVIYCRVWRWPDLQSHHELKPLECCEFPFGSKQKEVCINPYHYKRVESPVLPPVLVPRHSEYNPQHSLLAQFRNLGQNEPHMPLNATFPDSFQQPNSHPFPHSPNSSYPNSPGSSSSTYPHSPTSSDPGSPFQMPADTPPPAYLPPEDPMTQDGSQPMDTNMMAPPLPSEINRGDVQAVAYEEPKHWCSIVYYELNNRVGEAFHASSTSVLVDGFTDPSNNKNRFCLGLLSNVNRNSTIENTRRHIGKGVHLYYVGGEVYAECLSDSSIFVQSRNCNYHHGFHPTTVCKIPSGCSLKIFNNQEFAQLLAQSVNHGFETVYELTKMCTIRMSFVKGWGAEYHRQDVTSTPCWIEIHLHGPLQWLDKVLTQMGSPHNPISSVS
# UniProt Q15773: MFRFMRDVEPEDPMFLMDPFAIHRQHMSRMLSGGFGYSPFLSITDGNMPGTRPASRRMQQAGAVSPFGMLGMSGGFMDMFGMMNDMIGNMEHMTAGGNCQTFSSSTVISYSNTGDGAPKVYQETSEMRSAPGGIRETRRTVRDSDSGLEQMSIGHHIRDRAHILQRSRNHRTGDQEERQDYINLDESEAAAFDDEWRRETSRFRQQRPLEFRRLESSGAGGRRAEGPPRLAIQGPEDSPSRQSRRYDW
# UniProt Q15814: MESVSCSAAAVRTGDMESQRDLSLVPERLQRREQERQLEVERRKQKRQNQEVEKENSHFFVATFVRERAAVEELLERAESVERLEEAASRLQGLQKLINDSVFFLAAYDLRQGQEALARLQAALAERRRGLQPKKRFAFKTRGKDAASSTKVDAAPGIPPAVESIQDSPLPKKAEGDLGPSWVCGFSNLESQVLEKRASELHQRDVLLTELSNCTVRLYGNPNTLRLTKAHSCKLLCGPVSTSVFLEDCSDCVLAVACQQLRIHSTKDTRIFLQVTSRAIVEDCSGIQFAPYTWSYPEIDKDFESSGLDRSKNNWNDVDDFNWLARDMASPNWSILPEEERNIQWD
# UniProt Q5JSP0: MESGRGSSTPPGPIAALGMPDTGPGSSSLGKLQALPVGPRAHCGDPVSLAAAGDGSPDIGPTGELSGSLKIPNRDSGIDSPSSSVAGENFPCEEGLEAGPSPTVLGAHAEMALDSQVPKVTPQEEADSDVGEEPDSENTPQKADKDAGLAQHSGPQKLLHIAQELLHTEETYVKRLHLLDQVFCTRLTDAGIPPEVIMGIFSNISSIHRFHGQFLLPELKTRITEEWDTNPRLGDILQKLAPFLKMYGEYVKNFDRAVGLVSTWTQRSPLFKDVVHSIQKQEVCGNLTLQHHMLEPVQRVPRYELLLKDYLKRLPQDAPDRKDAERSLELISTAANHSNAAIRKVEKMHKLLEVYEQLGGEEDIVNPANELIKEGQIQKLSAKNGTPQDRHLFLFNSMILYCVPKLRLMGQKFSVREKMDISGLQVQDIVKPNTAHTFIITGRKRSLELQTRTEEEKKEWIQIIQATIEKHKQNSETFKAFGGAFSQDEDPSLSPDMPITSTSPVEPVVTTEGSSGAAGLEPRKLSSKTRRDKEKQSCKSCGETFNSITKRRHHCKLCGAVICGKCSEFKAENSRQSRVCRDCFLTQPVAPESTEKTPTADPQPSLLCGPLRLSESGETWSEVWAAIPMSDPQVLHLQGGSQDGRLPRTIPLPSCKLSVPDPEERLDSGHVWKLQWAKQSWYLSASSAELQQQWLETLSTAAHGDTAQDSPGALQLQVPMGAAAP
# UniProt Q15061: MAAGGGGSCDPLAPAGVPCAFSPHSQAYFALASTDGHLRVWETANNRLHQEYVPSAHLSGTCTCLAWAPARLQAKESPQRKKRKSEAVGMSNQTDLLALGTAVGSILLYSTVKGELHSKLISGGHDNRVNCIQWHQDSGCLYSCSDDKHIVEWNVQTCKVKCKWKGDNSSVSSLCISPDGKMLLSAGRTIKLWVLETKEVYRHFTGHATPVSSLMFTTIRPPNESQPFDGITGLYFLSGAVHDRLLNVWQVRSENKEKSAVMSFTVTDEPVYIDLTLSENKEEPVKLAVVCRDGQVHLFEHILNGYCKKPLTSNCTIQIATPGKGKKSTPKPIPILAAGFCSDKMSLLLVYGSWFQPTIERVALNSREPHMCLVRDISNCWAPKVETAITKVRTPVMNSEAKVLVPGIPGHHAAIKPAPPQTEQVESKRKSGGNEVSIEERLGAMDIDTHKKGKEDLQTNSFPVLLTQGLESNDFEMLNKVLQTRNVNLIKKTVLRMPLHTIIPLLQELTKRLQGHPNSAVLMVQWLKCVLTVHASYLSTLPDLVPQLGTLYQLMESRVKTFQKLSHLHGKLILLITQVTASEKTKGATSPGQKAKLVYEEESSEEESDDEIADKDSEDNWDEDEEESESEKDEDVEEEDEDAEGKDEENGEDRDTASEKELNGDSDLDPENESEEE
# UniProt Q15392: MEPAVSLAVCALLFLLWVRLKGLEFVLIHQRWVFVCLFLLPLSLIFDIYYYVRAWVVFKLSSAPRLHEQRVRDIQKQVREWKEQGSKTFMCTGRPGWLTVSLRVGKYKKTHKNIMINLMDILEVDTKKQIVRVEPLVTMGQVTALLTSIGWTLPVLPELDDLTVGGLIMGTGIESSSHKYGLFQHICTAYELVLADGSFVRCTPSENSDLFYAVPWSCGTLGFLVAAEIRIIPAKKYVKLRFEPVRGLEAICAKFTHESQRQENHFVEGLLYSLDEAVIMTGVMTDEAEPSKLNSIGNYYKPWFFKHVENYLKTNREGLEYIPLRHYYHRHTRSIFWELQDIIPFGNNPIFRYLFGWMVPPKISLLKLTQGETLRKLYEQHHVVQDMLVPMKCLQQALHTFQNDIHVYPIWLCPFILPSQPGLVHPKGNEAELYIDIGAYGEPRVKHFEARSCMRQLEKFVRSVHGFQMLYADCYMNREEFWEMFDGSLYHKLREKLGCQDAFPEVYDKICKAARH
# UniProt Q14696: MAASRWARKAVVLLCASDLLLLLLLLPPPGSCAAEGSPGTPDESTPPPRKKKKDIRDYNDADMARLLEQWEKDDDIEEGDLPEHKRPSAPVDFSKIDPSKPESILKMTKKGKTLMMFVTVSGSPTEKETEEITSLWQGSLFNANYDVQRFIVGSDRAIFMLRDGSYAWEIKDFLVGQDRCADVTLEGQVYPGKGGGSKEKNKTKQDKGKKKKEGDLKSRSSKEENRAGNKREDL
# UniProt Q5T5Y3: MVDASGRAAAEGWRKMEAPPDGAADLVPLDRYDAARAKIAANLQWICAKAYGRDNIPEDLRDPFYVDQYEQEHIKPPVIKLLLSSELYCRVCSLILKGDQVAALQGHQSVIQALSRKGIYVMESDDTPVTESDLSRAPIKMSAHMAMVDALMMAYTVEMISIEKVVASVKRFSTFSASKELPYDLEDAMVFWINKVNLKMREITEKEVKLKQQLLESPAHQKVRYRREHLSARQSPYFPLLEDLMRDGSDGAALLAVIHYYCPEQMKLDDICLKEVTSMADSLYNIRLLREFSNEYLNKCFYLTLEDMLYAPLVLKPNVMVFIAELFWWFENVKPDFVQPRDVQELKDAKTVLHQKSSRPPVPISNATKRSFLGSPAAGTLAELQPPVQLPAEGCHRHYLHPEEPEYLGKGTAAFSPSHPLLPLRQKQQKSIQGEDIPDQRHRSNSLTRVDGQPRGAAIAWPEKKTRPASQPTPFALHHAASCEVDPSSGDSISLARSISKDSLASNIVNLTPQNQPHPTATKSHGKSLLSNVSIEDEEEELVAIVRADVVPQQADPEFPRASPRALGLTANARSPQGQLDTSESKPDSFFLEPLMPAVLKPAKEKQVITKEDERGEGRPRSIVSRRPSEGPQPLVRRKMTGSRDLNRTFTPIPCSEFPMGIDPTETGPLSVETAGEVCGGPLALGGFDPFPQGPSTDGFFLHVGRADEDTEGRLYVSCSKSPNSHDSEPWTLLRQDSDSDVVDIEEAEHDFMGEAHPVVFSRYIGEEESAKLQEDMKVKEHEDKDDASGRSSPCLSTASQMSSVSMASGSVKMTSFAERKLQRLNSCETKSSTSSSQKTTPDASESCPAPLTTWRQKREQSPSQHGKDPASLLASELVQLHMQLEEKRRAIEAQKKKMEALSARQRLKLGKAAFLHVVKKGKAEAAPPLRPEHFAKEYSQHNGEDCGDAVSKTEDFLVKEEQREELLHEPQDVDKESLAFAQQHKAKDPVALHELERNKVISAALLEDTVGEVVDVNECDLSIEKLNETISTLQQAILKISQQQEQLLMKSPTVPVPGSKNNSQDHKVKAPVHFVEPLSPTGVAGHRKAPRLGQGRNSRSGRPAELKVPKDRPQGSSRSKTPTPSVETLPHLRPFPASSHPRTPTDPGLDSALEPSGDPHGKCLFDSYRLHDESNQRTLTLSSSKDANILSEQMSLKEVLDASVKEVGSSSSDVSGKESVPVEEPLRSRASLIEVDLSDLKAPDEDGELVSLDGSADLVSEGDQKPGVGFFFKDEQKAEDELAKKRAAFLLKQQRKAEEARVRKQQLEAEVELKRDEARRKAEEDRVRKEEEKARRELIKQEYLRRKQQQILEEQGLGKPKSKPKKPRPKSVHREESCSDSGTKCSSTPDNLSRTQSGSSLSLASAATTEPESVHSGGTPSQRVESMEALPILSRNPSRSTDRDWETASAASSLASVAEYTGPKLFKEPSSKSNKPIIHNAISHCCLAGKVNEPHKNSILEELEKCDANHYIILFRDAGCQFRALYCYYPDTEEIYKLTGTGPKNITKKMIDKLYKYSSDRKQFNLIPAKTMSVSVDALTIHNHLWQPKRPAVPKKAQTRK
# UniProt Q5EBM0: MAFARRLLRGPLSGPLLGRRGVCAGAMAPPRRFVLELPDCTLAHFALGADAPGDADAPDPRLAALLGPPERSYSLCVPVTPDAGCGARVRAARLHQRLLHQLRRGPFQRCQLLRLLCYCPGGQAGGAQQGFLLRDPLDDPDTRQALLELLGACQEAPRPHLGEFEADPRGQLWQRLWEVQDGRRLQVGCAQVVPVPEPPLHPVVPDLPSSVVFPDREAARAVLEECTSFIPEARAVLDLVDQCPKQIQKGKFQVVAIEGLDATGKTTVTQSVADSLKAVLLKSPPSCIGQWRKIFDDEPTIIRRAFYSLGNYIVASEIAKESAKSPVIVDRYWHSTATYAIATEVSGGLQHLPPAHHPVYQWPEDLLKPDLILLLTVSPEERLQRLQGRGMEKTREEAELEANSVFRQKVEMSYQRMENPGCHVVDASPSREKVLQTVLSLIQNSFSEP
# UniProt Q15427: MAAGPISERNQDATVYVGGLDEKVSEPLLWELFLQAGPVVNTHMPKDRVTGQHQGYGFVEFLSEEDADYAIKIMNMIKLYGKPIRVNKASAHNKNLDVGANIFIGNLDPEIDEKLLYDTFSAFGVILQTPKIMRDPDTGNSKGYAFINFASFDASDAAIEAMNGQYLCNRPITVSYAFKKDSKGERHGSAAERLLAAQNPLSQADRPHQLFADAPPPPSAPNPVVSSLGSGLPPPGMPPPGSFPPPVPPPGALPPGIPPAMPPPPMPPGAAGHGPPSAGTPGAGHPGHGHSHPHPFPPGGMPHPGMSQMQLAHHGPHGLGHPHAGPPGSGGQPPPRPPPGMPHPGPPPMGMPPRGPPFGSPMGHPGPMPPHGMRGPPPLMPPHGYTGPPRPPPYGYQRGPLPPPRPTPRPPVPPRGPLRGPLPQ
# UniProt Q15819: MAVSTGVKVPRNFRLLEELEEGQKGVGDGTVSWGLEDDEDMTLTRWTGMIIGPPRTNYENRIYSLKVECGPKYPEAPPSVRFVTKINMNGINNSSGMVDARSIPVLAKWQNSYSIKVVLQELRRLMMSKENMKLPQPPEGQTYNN
# ± gives the standard deviation of the averaged measurements. This is one part of the list.
# Compound: Nc1nc2c(ncn2[C@@H]2O[C@H](COP(=O)(O)OP(=O)(O)OP(=O)(O)O)[C@@H](O)[C@H]2O)c(=O)[nH]1 [guanosine triphosphate]
# Assay: NP40-soluble protein abundance relative to vehicle (solubility fold change) (ratio); higher = more soluble protein in presence of GTP
# Method in brief: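 Across three independent experiments, values are fold changes against the detergent-processed vehicle for each replicate, based on vsn-normalised intensities. The samples were Jurkat crude lysate treated with eight concentrations (0.1 to 10 mM) for 10 min at room temperature and then 3 min at 37 °C. Lysate was solubilised with 0.8% NP40 and benzonase, ultracentrifuged, and the supernatant analysed by TMT-labelled LC-MS/MS.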
Target,NP40-soluble protein abundance (concentration: 0.1mM),NP40-soluble protein abundance (concentration: 0.5mM),NP40-soluble protein abundance (concentration: 1mM),NP40-soluble protein abundance (concentration: 2mM),NP40-soluble protein abundance (concentration: 4mM),NP40-soluble protein abundance (concentration: 6mM),NP40-soluble protein abundance (concentration: 8mM),NP40-soluble protein abundance (concentration: 10mM)
SKIV2L (UniProt Q15477),0.966 ± 0.097,1.01 ± 0.068,0.992 ± 0.073,1.02 ± 0.038,1 ± 0.075,1.02 ± 0.1,0.97 ± 0.074,1.04 ± 0.063
UniProt Q4G0N4,1.09 ± 0.085,1.08 ± 0.056,1 ± 0.079,0.996 ± 0.049,1.01 ± 0.096,0.962 ± 0.056,0.995 ± 0.038,0.94 ± 0.13
QPRT (UniProt Q15274),0.996 ± 0.04,0.993 ± 0.031,0.9267 ± 0.0056,0.944 ± 0.029,0.936 ± 0.013,0.913 ± 0.019,0.926 ± 0.019,0.92 ± 0.031
C19orf54 (UniProt Q5BKX5),0.97 ± 0.06,0.927 ± 0.088,0.918 ± 0.067,0.908 ± 0.08,0.906 ± 0.06,0.8831 ± 0.0086,0.861 ± 0.053,0.851 ± 0.07
SMAD1 (UniProt Q15797),1.07 ± 0.037,0.9103 ± 0.0054,0.923 ± 0.11,0.94 ± 0.069,0.978 ± 0.054,1.01 ± 0.17,0.992 ± 0.032,0.867 ± 0.098
MLF2 (UniProt Q15773),1.03 ± 0.023,0.953 ± 0.067,0.93 ± 0.012,0.921 ± 0.076,0.9106 ± 0.0037,0.917 ± 0.059,0.852 ± 0.012,0.828 ± 0.029
UniProt Q5R372 and related entries,1.04 ± 0.012,0.993 ± 0.036,0.962 ± 0.021,0.955 ± 0.019,0.968 ± 0.03,0.916 ± 0.01,0.9582 ± 0.0061,0.931 ± 0.039
TBCC (UniProt Q15814),1.07 ± 0.057,1.06 ± 0.02,0.97 ± 0.075,0.997 ± 0.13,0.966 ± 0.11,0.939 ± 0.096,0.946 ± 0.033,0.921 ± 0.077
FGD3 (UniProt Q5JSP0),0.98 ± 0.041,0.965 ± 0.033,0.968 ± 0.044,0.925 ± 0.06,0.915 ± 0.075,0.908 ± 0.07,0.951 ± 0.045,0.923 ± 0.059
WDR43 (UniProt Q15061),1.03 ± 0.017,1.04 ± 0.059,1.05 ± 0.018,1.16 ± 0.051,1.34 ± 0.083,1.46 ± 0.12,1.58 ± 0.058,1.73 ± 0.088
UniProt Q5JSZ5,1.04 ± 0.13,1.03 ± 0.11,1.1 ± 0.14,1.14 ± 0.087,1.21 ± 0.13,1.34 ± 0.19,1.45 ± 0.26,1.66 ± 0.27
Q15392 and related entries (UniProt Q3LIE7+Q15392),1.11 ± 0.049,1.13 ± 0.1,0.92 ± 0.065,0.965 ± 0.15,0.943 ± 0.092,0.931 ± 0.098,0.869 ± 0.063,0.833 ± 0.13
RAB11B (UniProt Q15907),0.963 ± 0.025,0.9578 ± 0.0017,0.887 ± 0.054,0.872 ± 0.051,0.852 ± 0.064,0.849 ± 0.056,0.818 ± 0.081,0.807 ± 0.078
ACAP1 (UniProt Q15027),1 ± 0.035,1.01 ± 0.047,0.934 ± 0.036,0.933 ± 0.061,0.948 ± 0.066,0.908 ± 0.041,0.885 ± 0.026,0.86 ± 0.018
TOMM20 (UniProt Q15388),0.781 ± 0.08,0.742 ± 0.068,0.974 ± 0.11,0.959 ± 0.047,0.974 ± 0.067,0.985 ± 0.039,0.804 ± 0.23,1 ± 0.18
UniProt Q5JUR7,1.04 ± 0.022,1.03 ± 0.048,0.934 ± 0.058,0.955 ± 0.032,0.986 ± 0.033,0.991 ± 0.033,0.977 ± 0.042,0.964 ± 0.042
UniProt Q14696,0.938 ± 0.015,0.939 ± 0.071,0.938 ± 0.049,0.892 ± 0.074,0.878 ± 0.069,0.906 ± 0.081,0.902 ± 0.042,0.909 ± 0.069
UniProt Q5T5Y3 and related entries,1.075 ± 0.0042,0.976 ± 0.061,1.04 ± 0.023,0.997 ± 0.077,0.97 ± 0.047,0.957 ± 0.06,0.988 ± 0.047,0.966 ± 0.025
UniProt Q15029 and related entries,1.04 ± 0.06,1.11 ± 0.092,1.11 ± 0.11,1.19 ± 0.16,1.28 ± 0.18,1.32 ± 0.21,1.35 ± 0.19,1.39 ± 0.2
CMPK2 (UniProt Q5EBM0),1.02 ± 0.043,0.991 ± 0.031,0.972 ± 0.066,0.949 ± 0.034,0.94 ± 0.058,0.93 ± 0.079,0.917 ± 0.049,0.886 ± 0.081
UniProt Q15185 and related entries,0.882 ± 0.12,0.895 ± 0.13,0.852 ± 0.13,0.813 ± 0.12,0.818 ± 0.12,0.81 ± 0.1,0.819 ± 0.12,0.819 ± 0.11
CPTP (UniProt Q5TA50),1.04 ± 0.11,0.965 ± 0.064,0.85 ± 0.071,0.947 ± 0.073,0.9512 ± 0.0023,0.934 ± 0.071,0.843 ± 0.035,0.866 ± 0.032
Q5T3Q7 and related entries (UniProt Q9H583),1.01 ± 0.039,1.04 ± 0.061,0.991 ± 0.065,1.1 ± 0.076,1.23 ± 0.099,1.28 ± 0.13,1.26 ± 0.12,1.38 ± 0.043
UniProt Q16611 and related entries,0.936 ± 0.08,0.901 ± 0.036,0.887 ± 0.07,0.942 ± 0.077,0.879 ± 0.093,0.845 ± 0.082,0.785 ± 0.16,0.881 ± 0.14
UniProt Q16222 and related entries,1.05 ± 0.032,1.02 ± 0.06,0.9429 ± 0.0046,0.957 ± 0.043,0.971 ± 0.042,0.927 ± 0.017,0.897 ± 0.012,0.883 ± 0.051
SF3B4 (UniProt Q15427),0.944 ± 0.16,1.03 ± 0.17,1 ± 0.16,1.07 ± 0.16,1.11 ± 0.17,1.09 ± 0.16,1.15 ± 0.2,1.13 ± 0.2
NCAPD2 (UniProt Q15021),1.03 ± 0.027,1.05 ± 0.057,0.995 ± 0.037,1.01 ± 0.074,1.01 ± 0.061,1.01 ± 0.074,0.99 ± 0.049,0.976 ± 0.044
UniProt Q16181-2,1.02 ± 0.015,1.02 ± 0.012,0.9706 ± 0.0042,0.932 ± 0.012,0.937 ± 0.012,0.928 ± 0.015,0.95 ± 0.012,0.891 ± 0.023
UBE2V2 (UniProt Q15819),0.923 ± 0.027,0.886 ± 0.05,0.9487 ± 0.0088,0.929 ± 0.035,0.91 ± 0.042,0.896 ± 0.048,0.896 ± 0.05,0.95 ± 0.014
WTAP (UniProt Q15007),1.02 ± 0.016,1.05 ± 0.028,1.13 ± 0.033,1.13 ± 0.064,1.08 ± 0.14,1.14 ± 0.094,1.19 ± 0.034,1.25 ± 0.14

# Single entries from the results shown.
# Under NP40-soluble protein abundance (concentration: 6mM), ACAP1 (UniProt Q15027) has the entry 0.908 ± 0.041
# Under NP40-soluble protein abundance (concentration: 1mM), UniProt Q5JSZ5 has the entry 1.1 ± 0.14
